Measurements reported in patent US7411039B2 (Novo Nordisk A/S, priority 2002, dated 2008).

Assay: general procedure: Fmoc solid-phase peptide synthesis; Wang resin; HBTU
Conditions: whole synthesis, scale 0.25 mmol

D3E/L17K((S)-4-carboxy-4-(hexadecanoylamino)butanoyl)/K30R/D33E-GLP-2(1-33)
isolated mass: 29.3 mg
